# Measured values from PubChem BioAssay AID1487 (National Center for Advancing Translational Sciences (NCATS), 2009).
# Some of the results follow. Further columns of the screen follow, without active or inactive calls. Compounds called inactive in the main read-out are mostly missing here. Potencies come from curve fits of mixed quality, noted in brackets.
# Assay: qHTS Assay for Modulators of Lamin A Splicing
# Details: HeLa LMNA splicing GFP/RFP minigene ratio, 48 h
# In short: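 Read-out is the ratio of GFP to DsRed2 object intensity, acquired by 488 nm laser-scanning cytometry on HeLa lamin A-EGFP minigene reporter cells. Compound incubation 48 hrs at 37 °C in Opti-MEM with 2% FBS; DMSO 0.5% final.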
# [1] = measured here: RFP viability control channel
# [2] = measured here: GFP splicing reporter channel
SMILES,AC50 [1],AC50 [2]
CCn1ncc(CNC(=O)CCSc2nc(-c3ccco3)cc(C(F)(F)F)n2)c1C,"1.12 µM [rising, full curve, poor fit]",–
Cc1[nH]c2ccccc2c1C(=O)COC(=O)c1cccc(S(=O)(=O)N2CCCCC2)c1,"15.8 µM [rising, partial curve]","10 µM [rising, partial curve]"
O=C(Nc1ccc(F)cc1)c1ccc2c(=O)n3c(nc2c1)CCCCC3,"0.0794 µM [falling, full curve]","0.282 µM [falling, full curve, poor fit]"
COc1ccc(OC)c(CN2C(=O)c3ccccc3C2C(=O)NCC2CCCO2)c1 (stereo not given),"0.0708 µM [rising, full curve, poor fit]","0.0224 µM [rising, full curve, poor fit]"
CC(=NCCN1CCNCC1)C1=C(O)CC(C)(C)CC1=O,"3.98 µM [falling, partial curve, poor fit]",–
Cc1nn2c(nc1=O)SCC(c1ccccc1)=N2,"14.1 µM [rising, single point]",–
CCOc1ccccc1NC(=O)CCc1c(C)nn(-c2ccc(N3CCCCC3)nn2)c1C,–,"0.0501 µM [falling, full curve, poor fit]"
CCC(=O)O[C@]1(C(=O)CCl)[C@@H](C)C[C@H]2[C@@H]3CCC4=CC(=O)C=C[C@]4(C)[C@@]3(F)[C@@H](O)C[C@@]21C,"25.1 µM [rising, single point]","2.24 µM [falling, full curve, poor fit]"
CC(/C=N/n1c(C2CCCCC2)n[nH]c1=S)=C\c1ccccc1,"0.0316 µM [falling, single point]","0.0282 µM [falling, single point]"
Cc1c(/C=C/C(=O)c2ccccc2O)cnn1C,"0.0355 µM [falling, full curve, poor fit]",–
CNc1ccc(Br)cc(C(=O)/C=C/c2cccc(OC)c2)c1=O,–,"31.6 µM [falling, single point]"
CC(=O)c1ccc(N2CCN(C(=O)CCN3C(=S)NC(C)(C)CC3C)CC2)cc1 (stereo not given),–,"3.55 µM [falling, partial curve, poor fit]"
CC1CCC(C(C)C)C(=O)C1 (stereo not given),–,"0.251 µM [falling, full curve]"
Cc1ccc(C(NC(=O)c2ccccc2)C(Cl)Cl)cc1 (stereo not given),"15.8 µM [rising, partial curve]","17.8 µM [rising, single point]"
CCCCN(CCCC)S(=O)(=O)c1ccc2oc(C(=O)N3CCOCC3)c(C)c2c1,"35.5 µM [rising, single point]",–
O=C1C(c2ccc(F)cc2)N(CC2COc3ccccc3O2)C(=O)CN1C1CCCCC1 (stereo not given),–,"3.98 µM [rising, full curve, poor fit]"
COc1ccc(NC2=CC(c3ccc(OC)c(OC)c3)N(c3ccc(OC)cc3)C2=O)cc1 (stereo not given),"0.0282 µM [falling, full curve, poor fit]",–
N=C1SC(c2ccccc2)C(=O)N1c1ncc(Cc2ccccc2Cl)s1 (stereo not given),"25.1 µM [rising, single point]",–

SMILES,AC50 [1],AC50 [2]
Cc1ccc(C(=O)N2CC3(C(C)C)CN(C(=O)c4ccc(C)cc4)CC(C(C)C)(C2)C3=O)cc1,"0.0708 µM [falling, full curve, poor fit]",–
Cc1ccc(S(=O)(=O)CC(=O)c2ccc(C(C)(C)C)cc2)cc1,"17.8 µM [rising, single point]",–
CC(=O)Nc1ccc(Nc2cc(C)nc3c(-c4ccccc4)cnn23)cc1,"0.0126 µM [rising, full curve, poor fit]",–
Cn1cc(C(=O)N/N=C/c2cccs2)c2ccccc21,"5.01 µM [rising, partial curve]",–
COc1ccc(NC(=O)CC2C(=O)N(c3ccc(F)cc3)C(=S)N2NC(=O)c2ccccc2)cc1 (stereo not given),"12.6 µM [rising, single point]",–
CCN(CC)S(=O)(=O)c1cccc(NC(=O)c2cc3ccccc3o2)c1,"22.4 µM [rising, partial curve]","12.6 µM [rising, partial curve]"
CC(Oc1ccc2oc3ccccc3c2c1)C(=O)NC12CC3CC(CC(C3)C1)C2 (stereo not given),"35.5 µM [rising, single point]","31.6 µM [rising, single point]"
Cc1ccc(-c2noc(CCC(=O)Nc3ccc4c(c3)OCO4)n2)cc1,–,"22.4 µM [rising, single point]"
COc1ccc(-c2c(C(F)(F)F)oc3cc(OCC(=O)Nc4ccccc4C(F)(F)F)ccc3c2=O)cc1OC,"5.01 µM [falling, partial curve]",–
COc1cccc(-c2nn(-c3ccccc3)cc2C(=O)Nc2nccs2)c1,"15.8 µM [rising, single point]",–
COc1cc(C)nc(Nc2nc(C)c(C(C)=O)s2)n1,"0.398 µM [rising, full curve, poor fit]",–
CCOC(=O)CN1C(=O)S/C(=C/c2ccc(O)c([N+](=O)[O-])c2)C1=O,"25.1 µM [rising, single point]",–
Cc1ccc(-n2ncc3c(Nc4cccc(Cl)c4)ncnc32)c(C)c1,–,"35.5 µM [falling, single point]"
c1ccc([C@H]2CN3CCSC3=N2)cc1,–,"0.562 µM [rising, full curve, poor fit]"
CCc1ccc(CNC(=O)CCc2c(C)nn(-c3ccc(N4CCCC4)nn3)c2C)cc1,–,"0.00631 µM [falling, full curve, poor fit]"
CCOc1ccc(S(=O)(=O)N2CCOCC2)cc1[N+](=O)[O-],"0.0794 µM [falling, full curve, poor fit]","0.794 µM [falling, full curve, poor fit]"
COc1cc(/C=N/NC(=S)Nc2cccc(Cl)c2C)ccc1OCC(=O)N1CC(C)OC(C)C1 (stereo not given),"12.6 µM [rising, single point]","14.1 µM [rising, single point]"

# Copied from the list:
# CCOc1ccc(S(=O)(=O)N2CCOCC2)cc1[N+](=O)[O-] | AC50 [1]: 0.0794 µM [falling, full curve, poor fit]
# Cc1ccc(C(=O)N2CC3(C(C)C)CN(C(=O)c4ccc(C)cc4)CC(C(C)C)(C2)C3=O)cc1 | AC50 [1]: 0.0708 µM [falling, full curve, poor fit]
